# From the supplement of paper PMC6411743
# ± gives the standard deviation of the averaged measurements. The list shows a part of the results.
# Target: T1, A0A087WTW0|A0A087WVR3|Q96T88 and related entries (UniProt Q96T88)
# T1 sequence (whole entry): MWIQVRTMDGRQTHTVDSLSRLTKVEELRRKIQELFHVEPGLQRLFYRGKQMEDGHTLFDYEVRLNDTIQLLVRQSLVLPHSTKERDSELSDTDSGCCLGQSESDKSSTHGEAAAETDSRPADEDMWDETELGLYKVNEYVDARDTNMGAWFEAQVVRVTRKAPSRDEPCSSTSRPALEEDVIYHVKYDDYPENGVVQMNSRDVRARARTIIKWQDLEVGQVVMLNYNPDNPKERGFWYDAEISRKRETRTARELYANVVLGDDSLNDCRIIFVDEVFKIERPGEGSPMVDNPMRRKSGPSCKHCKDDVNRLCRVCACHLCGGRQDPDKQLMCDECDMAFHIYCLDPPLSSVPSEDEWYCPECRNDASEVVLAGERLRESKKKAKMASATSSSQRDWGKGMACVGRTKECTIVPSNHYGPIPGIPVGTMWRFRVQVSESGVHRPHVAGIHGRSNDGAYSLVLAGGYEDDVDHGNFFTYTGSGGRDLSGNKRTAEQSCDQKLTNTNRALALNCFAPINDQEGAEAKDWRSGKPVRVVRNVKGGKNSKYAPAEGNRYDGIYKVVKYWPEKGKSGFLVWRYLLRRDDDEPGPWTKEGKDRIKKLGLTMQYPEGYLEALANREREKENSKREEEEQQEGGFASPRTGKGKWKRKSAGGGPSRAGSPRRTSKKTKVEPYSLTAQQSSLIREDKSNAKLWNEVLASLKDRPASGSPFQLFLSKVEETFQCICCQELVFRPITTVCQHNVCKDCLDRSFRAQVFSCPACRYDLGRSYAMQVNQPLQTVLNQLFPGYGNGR
# Assay: NP40-soluble protein abundance relative to vehicle (solubility fold change) (ratio); higher = more soluble protein in presence of GTP
# Experimental: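 Solubility proteome profiling in Jurkat crude lysate. Lysate was treated with Mg-GTP (0.1-10 mM) for 10 min at room temperature and 3 min at 37 °C, then solubilised with 0.8% NP40 and benzonase, followed by ultracentrifugation. Proteins were quantified by TMT10 LC-MS/MS; the value is the NP40-soluble abundance relative to the NP40-processed vehicle, from 3 independent experiments.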
smiles,measurement,setting,value
Nc1nc2c(ncn2[C@@H]2O[C@H](COP(=O)(O)OP(=O)(O)OP(=O)(O)O)[C@@H](O)[C@H]2O)c(=O)[nH]1 [guanosine triphosphate],NP40-soluble protein abundance,concentration: 0.1mM,1.04 ± 0.019
same,NP40-soluble protein abundance,concentration: 0.5mM,1.07 ± 0.04
same,NP40-soluble protein abundance,concentration: 1mM,1.09 ± 0.02
same,NP40-soluble protein abundance,concentration: 2mM,1.09 ± 0.025
same,NP40-soluble protein abundance,concentration: 4mM,1.169 ± 0.0067
same,NP40-soluble protein abundance,concentration: 6mM,1.16 ± 0.02
same,NP40-soluble protein abundance,concentration: 8mM,1.19 ± 0.026
same,NP40-soluble protein abundance,concentration: 10mM,1.16 ± 0.044
